Results are given in words; binding and its absence hold for the method and conditions named. Some entries that bind do so weakly or less than the wild type. Where a sequence is shown, tags or fusion partners need not be part of it.
Experiments:
[1] = biological target: T1, GajA of Bacillus cereus VD045 co-expressed with GajB, made with an N-terminal (His)6-MBP tag that was removed before the final SEC (Bacillus cereus VD045) (UniProt J8H9C1); assay: co-purification + SEC; (His)6-MBP-GajA and untagged GajB co-expressed in E. coli; purified on HisTrap HP, tag cleaved by TEV, final SEC on Superdex 200 in 300 mM NaCl, 5% glycerol, 2 mM DTT, 20 mM HEPES pH 7.5
T1 sequence: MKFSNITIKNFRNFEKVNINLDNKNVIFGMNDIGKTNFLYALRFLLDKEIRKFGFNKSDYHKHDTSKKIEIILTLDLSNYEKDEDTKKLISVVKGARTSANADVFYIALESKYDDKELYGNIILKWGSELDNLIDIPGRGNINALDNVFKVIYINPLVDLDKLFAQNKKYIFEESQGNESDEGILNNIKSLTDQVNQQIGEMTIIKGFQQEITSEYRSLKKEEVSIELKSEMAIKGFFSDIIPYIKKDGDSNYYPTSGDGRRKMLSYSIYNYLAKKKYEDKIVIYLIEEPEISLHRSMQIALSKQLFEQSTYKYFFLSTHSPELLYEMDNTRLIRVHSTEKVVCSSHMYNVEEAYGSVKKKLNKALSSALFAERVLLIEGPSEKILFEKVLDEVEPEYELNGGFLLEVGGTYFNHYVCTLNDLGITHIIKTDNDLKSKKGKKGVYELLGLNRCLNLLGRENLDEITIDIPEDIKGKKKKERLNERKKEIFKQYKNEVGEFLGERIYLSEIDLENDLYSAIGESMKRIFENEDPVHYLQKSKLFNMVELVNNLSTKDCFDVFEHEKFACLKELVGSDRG

[2] = biological target: GajB of the Gabija anti-phage defense system of Bacillus cereus VD045, purified on its own, (His)6-MBP tag cleaved by TEV protease (Bacillus cereus VD045) (UniProt J8HQ06); assay: SEC-MALS + SEC; each protein alone; Superdex 200 Increase 10/300 GL with miniDAWN/Optilab, 300 mM NaCl, 2 mM DTT, 5% glycerol, 20 mM HEPES pH 7.5, 20 μM, 25 °C; analytical SEC in the same buffer; both purified

B1: GajB of Bacillus cereus VD045, untagged, co-expressed with (His)6-MBP-GajA (protein, UniProt J8HQ06 1-494)
chain: MSREQIIKDGGNILVTAGAGSGKTTILVSKIEADLKENKTHYSIAAVTFTNKAAKEIEGRLGYSSRGNFIGTNDGFVESEIIRPFIKDAFGNDYPDNFTAEYFDNQFASYDKGLQVLKYQNILGTYSNPKKNFKFQLALDILKKSLVARQYIFSKYFKIFIDEYQDSDKDMHNLFMYLKDQLKIKLFIVGDPKQSIYIWRGAEPENFNGLIENSTDFNKYHLTSNFRCCQDIQNYSNLFNEETRSLIKEKNEVQNVISIADDMPISDILLKLTEEKQVLNIEAELVILVRRRNQAIEIMKELNEEGFNFIFIPQTPLDRATPNATLLKEVIKYVKNDRYSIYDLAAEIVGNLSSREIKEIQKIINELLVPNINQVLINQVLINLFAKLEITLDTREITAFTEVMMTNEFDIAFDTNEYLHKIFTVHSAKGLEFNQVIITASDYNVHYNRDTNEHYVATTRAKDKLIVIMDNKKYSDYIETLMKELKIKNIIKSI
For B1, the binding [1] was “binds”.

B2: GajB of the Gabija anti-phage defense system of Bacillus cereus VD045, purified on its own, (His)6-MBP tag cleaved by TEV protease (natural protein)
chain: B1 chain
notes: GajB, Bacillus cereus VD045, synthetic gene in pET28a with (His)6-MBP and a TEV site; 57.1 kDa as printed; the subdomains of the crystal structure span residues 1-494; the shorter of the two GajB forms that the discussion tells of (the long form has five more N-terminal residues); Monomer by SEC-MALS and analytical SEC; also called individually purified GajB; separately purified GajB; source: E. …
B2 was tested, and the binding [2] was “no binding (tested: 20 μM)”.
